In patent US6627211B1, “Transnasal anticonvulsive compositions and modulated process” (SK Corporation, priority 1999, dated 2003):

Assay: Bioavailability and pharmacokinetics of diazepam preparations after IV and IN administration
Details: rabbits, repeated intranasal application 5 minutes after the first dosing

**Q.** With `CN1C(=O)CN=C(c2ccccc2)c2cc(Cl)ccc21` [Diazepam, diazepam] as the compound, how does the “time at which plasma diazepam level after the second dosing exceeds that of the single IV administration” value read?
**A.** ≤ 7 min
